{"source": "ChEMBL document CHEMBL3868603", "about": "“Synthesis and evaluation of naphthyl bearing 1,2,3-triazole analogs as antiplasmodial agents, cytotoxicity and docking studies” (Bioorg Med Chem, 2017)", "assay": "Cytotoxicity against HEK293 cells assessed as decrease in cell viability after 48 hrs by MTT assay", "assay_type": "toxicity, cell-based", "settings": "human", "in_short": "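HEK-293 in MEM with 10% FBS, seeded 10,000 cells/well, 24 h at 37°C, 5% CO2; treated 1–100 µM in triplicate with DMSO control and doxorubicin reference, 48 h. MTT added 1 h, dried, DMSO dissolved, absorbance 562 nm; IC50 as 50% absorbance reduction versus control, mean ± SD of three independent experiments.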"}
{"smiles": "COc1cccc2c1C(=O)c1c(O)c3c(c(O)c1C2=O)C[C@@](O)(C(=O)CO)C[C@@H]3O[C@H]1C[C@H](N)[C@H](O)[C@H](C)O1", "note": "[DOXORUBICIN]", "values": [{"measurement": "IC50 at 48 h", "result": 3.13, "unit": "µM"}]}
